Assay results as given in patent US20260274892A1 (RQx Pharmaceuticals, Inc., priority 2017, published 2026).

Assay: peptide synthesis
[1] = late stage modification step, FA salt
[2] = late stage modification step, formic acid salt

In the case of “(4S,7S,10S)-10-((S)-4-amino-2-(2-(4-(tert-butyl)phenyl)-4,6-dimethylpyrimidine-5-carboxamido)-N-methylbutanamido)-25-(2-aminoethoxy)-N-(cyanomethyl)-16,26-dihydroxy-7-methyl-6,9-dioxo-5,8-diaza-1,2(1,3)-dibenzenacyclodecaphane-4-carboxamide”, the step yield [1] is reported as 47.1%.

“rac-(8S,11S,14S)-5,18-bis(2- aminoethoxy)-N-(cyanomethyl)-3- hydroxy-11-methyl-14-[methyl-[rac- (2S)-2-[[2-(4-tert-butylphenyl)-4,6- dimethyl-pyrimidine-5- carbonyl]amino]-3- (sulfamoylamino)propanoyl]amino]- 10,13-dioxo-9,12- diazatricyclo[13.3.1.12,6]icosa- 1(18),2(20),3,5,15(19),16-hexaene- 8-carboxamide” showed a step yield [1] of 5.9% yield.

“rac-(8S,11S,14S)-N-(cyanomethyl)- 3,18-bis[2-(dimethylamino)ethoxy]- 11-methyl-14-[methyl-[rac-(2S)-4- amino-2-[[2-(4-tert-butylphenyl)-4- methyl-pyrimidine-5- carbonyl]amino]butanoyl]amino]- 10,13-dioxo-9,12- diazatricyclo[13.3.1.12,6]icosa- 1(18),2(20),3,5,15(19),16-hexaene- 8-carboxamide” gave a step yield [2] of 23%.

“rac-(8S,11S,14S)- 4,18-bis(2- aminoethoxy)-3- hydroxy-11-methyl- 14-[methyl-[rac- (2S)-4-amino-2-[[2- (4-tert-butylphenyl)- 4,6-dimethyl- pyrimidine-5- carbonyl]amino] butanoyl]amino]- 10,13-dioxo-9,12- diazatricyclo [13.3.1.12,6]icosa- 1(18),2,4,6(20),15(19), 16-hexaene-8- carboxylic acid” showed a step yield [1] of 98.1%.

In the case of “rac-(8S,11S,14S)-3,18-bis(2- aminoethoxy)-N-(cyanomethyl)-11- methyl-14-[methyl-[rac-(2S)-4- amino-2-[[2-(4-tert-butoxyphenyl)- 4-methyl-pyrimidine-5- carbonyl]amino]butanoyl]amino]- 10,13-dioxo-9,12- diazatricyclo[13.3.1.12,6]icosa- 1(18),2(20),3,5,15(19),16-hexaene- 8-carboxamide”, the step yield [2] is reported as 67% yield.

“rac-(8S,11S,14S)-N-(cyanomethyl)- 18-[2-(ethanimidoylamino)ethoxy]- 3-hydroxy-11-methyl-14-[methyl- [rac-(2S)-4-amino-2-[[2-(4-tert- butylphenyl)-4,6-dimethyl- pyrimidine-5- carbonyl]amino]butanoyl]amino]- 10,13-dioxo-9,12- diazatricyclo[13.3.1.12,6]icosa- 1(18),2(20),3,5,15(19),16-hexaene- 8-carboxamide” showed a step yield (late stage modification step, over three steps from compound 603-3, TFA salt) of 16% yield over three steps.

In the case of “methyl (4S,7S,10S)-10-((S)-4-(((benzyloxy)carbonyl)amino)-2-((tert-butoxycarbonyl)amino)-N-methylbutanamido)-25-(2-(((benzyloxy)carbonyl)amino)ethoxy)-16,26-dimethoxy-7-methyl-6,9-dioxo-5,8-diaza-1,2(1,3)-dibenzenacyclodecaphane-4-carboxylate”, the step yield (coupling step, FA salt) is reported as 85.4%.
